Measured values published in EP2899279A1.

Legend:
[1] = biological target: Grapevine fanleaf virus isolate B844 (Grapevine fanleaf virus, isolate B844); test: DAS-ELISA, legend of Figure 3B
[2] = biological target: Grapevine fanleaf virus isolate TD (Grapevine fanleaf virus, isolate TD); test: DAS-ELISA, legend of Figure 3B
[3] = biological target: Grapevine fanleaf virus isolate BE4.11 (Grapevine fanleaf virus, isolate BE4.11); test: DAS-ELISA, legend of Figure 3B
[4] = biological target: Grapevine fanleaf virus isolate BE5.19 (Grapevine fanleaf virus, isolate BE5.19); test: DAS-ELISA, legend of Figure 3B
[5] = biological target: Grapevine fanleaf virus isolate CO2 (Grapevine fanleaf virus, isolate CO2); test: DAS-ELISA, legend of Figure 3B
[6] = biological target: Grapevine fanleaf virus isolate BUChardT60 (Grapevine fanleaf virus, isolate BUChardT60); test: DAS-ELISA, legend of Figure 3B
[7] = biological target: Grapevine fanleaf virus isolate GHu (Grapevine fanleaf virus, isolate GHu); test: DAS-ELISA, legend of Figure 3B
[8] = biological target: Grapevine fanleaf virus isolate B844 (Grapevine fanleaf virus, isolate B844); test: DAS-ELISA: virus captured by anti-GFLV polyclonals, StrepII tagged Nb23 at 1 µg/ml as detection antibody
[9] = biological target: Grapevine fanleaf virus isolate TD (Grapevine fanleaf virus, isolate TD); test: as above
[10] = biological target: Grapevine fanleaf virus isolate BE4.11 (Grapevine fanleaf virus, isolate BE4.11); test: as above
[11] = biological target: Grapevine fanleaf virus isolate BE5.19 (Grapevine fanleaf virus, isolate BE5.19); test: as above
[12] = biological target: Grapevine fanleaf virus isolate CO2 (Grapevine fanleaf virus, isolate CO2); test: as above
[13] = biological target: Grapevine fanleaf virus isolate BUChardT60 (Grapevine fanleaf virus, isolate BUChardT60); test: as above
[14] = biological target: Grapevine fanleaf virus isolate GHu (Grapevine fanleaf virus, isolate GHu); test: as above

Measured: binding

B1: StrepII tagged Nb23 (VHH, not shown: small tags and cut ends)
VHH: QVQLQESGGGSVQVGGSLRVACAASGDTFSGYLAAWFRQAPGKGREGVAAINSKRHTTSYADSVKGRFTISKDNADNIMYLEMNSLKPEDTAIYYCAAADAIGLAEYWSTPTLSAARYKYWGQGTQVTVSS
binds: all assays above

No constants are given. Whether binding was seen depends on the method and setting. Binding can be weak; no strength is given. Sequences can lack the tags named with a protein.
